Experimental data from the supplement of paper PMC12578635.
± gives the standard deviation of the averaged measurements. Some of the results follow. Most values come without repeats; read them as rough.

Tested on: RAW 264.7 macrophages infected with S. aureus JE2-lux
Test: host macrophage viability (CellTiter-Fluor) relative to DMSO vehicle; higher = more viable host cells
Conditions: 10 µM; treatment time 4 h; gentamicin 50 µg/ml

Compound	host macrophage viability [%]
Cn1c(=O)[nH]c(=O)c2[nH]c(CN(Cc3ccccc3)Cc3ccccc3)nc21	119
COc1ccc(C2C3=C(CC(C)(C)CC3=O)Nc3nc(SC(C)C)[nH]c(=O)c32)cc1 (stereo unspecified)	128
O=C(/C=C/c1ccccc1)NN1C(=O)c2ccccc2C1=O	110
O=C(CSc1nnc(-c2ccccc2)c(-c2ccccc2)n1)Nc1nccs1	109
CCOC(=O)c1[nH]c2ccccc2c1NC(=S)Nc1cccc(Cl)c1C	112
CCOC(=O)Cc1csc(NC(=O)CSc2nc(=O)[nH]c3c2CCCC3)n1	105
COc1cccc2sc(Nc3ccccc3)nc12	109 ± 8.2
O=C(c1noc2ccc(S(=O)(=O)N3CCC(Cc4ccccc4)CC3)cc12)N1CCCC1	96.1
O=C(CSc1nc(O)c2c(n1)CCC2)Nc1cccc2ccccc12	111
CCNc1nc(C(N)=O)c(NC(=O)c2cc(-c3ccc(OC)cc3)nc3ccccc23)s1	121
N#C/C(=C\Nc1ccc2c(c1)OCO2)c1nc(-c2ccc([N+](=O)[O-])cc2)cs1	112 ± 12
Cn1c(=O)c(C(=O)NCCc2c[nH]c3ccccc23)cc2cccnc21	103
CCOC(=O)Cc1ccc(NC(=O)N2CCc3c(c(C(=O)N4CCCCC4)nn3C)C2)cc1	125
O=C(Cc1csc2nc(-c3ccc(F)cc3)cn12)NCc1ccc(F)cc1	113
O=C(C1CCN(c2nccnc2Oc2ccccc2)CC1)N1CCN(c2cccc(Cl)c2)CC1	118
CCN(CC(O)Cn1c2ccccc2c2ccccc21)S(=O)(=O)c1ccc(F)cc1 (stereo unspecified)	105
COc1ccc(OC)c(S(=O)(=O)NCCc2sc(-c3ccc(F)cc3)nc2C)c1	117
Cc1cc(C(=O)NC2CCCOC2)c2cccc(Cl)c2n1 (stereo unspecified)	106
Cc1ccc(S(=O)(=O)Nc2ccccc2C(=O)Nc2c(C(N)=O)oc3ccccc23)cc1	118 ± 14
COc1ccc(Nc2ncnc3scc(-c4ccc(Cl)cc4)c23)c(OC)c1	132
O=C(Nc1ccc(SCc2nnc(-c3ccccc3)o2)cc1)C1CC1	121
Cc1c(-c2ccccc2)n[nH]c1C(=O)NC(c1ccccc1)c1ccnn1C (stereo unspecified)	104
Cc1nn(-c2nc3ccccc3[nH]2)c2c1C(c1ccc([N+](=O)[O-])s1)CC(=O)N2 (stereo unspecified)	117
CCOC(=O)c1ccccc1NC(=O)CC1S/C(=N/C)N(C)C1=O (stereo unspecified)	102
CCc1ccc2[nH]c3nc(SCC(=O)Nc4nnc(C(C)C)s4)nnc3c2c1	109
COc1cccc(OC(=O)c2cc3c(-c4ccccc4F)nn(C)c3s2)c1	91.6

By substructure: the compounds so far containing a thiophene ring, fused or not
Compound	host macrophage viability [%]
COc1ccc(Nc2ncnc3scc(-c4ccc(Cl)cc4)c23)c(OC)c1	132
Cc1nn(-c2nc3ccccc3[nH]2)c2c1C(c1ccc([N+](=O)[O-])s1)CC(=O)N2 (stereo unspecified)	117
COc1cccc(OC(=O)c2cc3c(-c4ccccc4F)nn(C)c3s2)c1	91.6

Following part.

Compound	host macrophage viability [%]
CC(C)N1C(=O)/C(=C2/C(=O)N(CC(N)=O)c3ccccc32)SC1=S	91
CC(=O)c1ccc(-n2nnnc2SCC(=O)c2ccc3c(c2)OCCO3)cc1	103
CC(C)N1C(=O)c2ccccc2Sc2cc(NC(=O)c3cncc(Br)c3)ccc21	119
COc1ccc(NC(=O)Cn2c(=O)c3cc(Cl)ccc3n3nncc23)cc1	124
CCCCc1c(C)nn(-c2nc(C)c(C(=O)Nc3cccc(C)c3C)s2)c1O	105
CC(C)(C)NC(=O)c1cccc2c1-c1ccccc1C2=O	111
CCc1cccc(NC(=O)c2nn(C)c(C(F)(F)F)c2Cl)c1	120
O=C(CSc1ncnc2nc[nH]c12)N1CCN(Cc2ccc3c(c2)OCO3)CC1	125
CCOc1ccccc1/C=N/NC(=O)c1n[nH]c2c1CCC2	90.9
Cc1cccc(C(c2sc3nc(C)nn3c2O)N2CCCC2)c1 (stereo unspecified)	120
CC1CCc2c(sc3ncnc(NCCN4CCOCC4)c23)C1 (stereo unspecified)	105
CCN(C(=O)C1CCCCC1)c1nc2c(s1)CCc1oc(C)cc1-2	106
COc1ccc(NC(=O)CSc2nc3ccccc3o2)cc1	112
Cc1ccc(C2=NS(=O)(=O)N(C)C(C(=O)Nc3cc(C)n(CC(=O)Nc4cccnc4)n3)=C2)cc1	103
Cc1c(C(=O)Oc2cc(N)n(S(C)(=O)=O)n2)cccc1[N+](=O)[O-]	126
CCC(=O)Nc1ccc(N2C(=O)CS/C2=N\NC(=O)c2ccc(O)cc2)cc1	111
Cc1ccc(-n2c(=O)c3oc4ccccc4c3n(CC(=O)Nc3ccccc3F)c2=O)cc1	119
CC(=O)Nc1cccc(NC(=O)CSc2nnc(NC(=O)Cc3ccc(F)cc3)s2)c1	111
O=C(CS(=O)(=O)c1ccccc1)Nc1cccc2c1C(=O)c1ccccc1C2=O	111
O=C(CSc1ncnc2[nH]ncc12)Nc1nc(-c2ccco2)c(-c2ccco2)s1	144
O=C(NNc1nc2ccc(Cl)cc2s1)c1nc2ccccc2s1	95.6 ± 9.3
Cc1cccc(N2CCN(C(=O)c3cc(CN4CCOCC4)on3)CC2C)c1 (stereo unspecified)	136
O=C(c1ccccc1)N1N=C(c2ccc(O)cc2)CC1c1ccco1 (stereo unspecified)	119
NC(=O)C1CCN(C(=O)Cc2cc(=O)[nH]c(=O)[nH]2)CC1	106
COc1ccc(NC(=O)c2ccccc2NS(=O)(=O)c2ccc(F)cc2)c([N+](=O)[O-])c1	84.6
